In paper PMC12548414:
Among all 1,600 compounds or so, about 20 (1%) showed an effect of 50% or more. The list shows a part of the results.

The compounds below were run on T1, E. coli pLC1021 (luc-trpAt trans-translation reporter). Details: reporter signal, KKL-35 = 100%; rise means trans-translation inhibition; 2 h, 20 µM.
T1 construct: pLC1021 luc-trpAt reporter strain
Set-up: species or system Escherichia coli pLC1021; luc-trpAt non-stop luciferase reporter; luminescence rises when trans-translation is inhibited; normalized to KKL-35 and DMSO
Method: The luciferase screen was performed as previously described ([16]). […] 48 µL of cells was transferred to white 96-well plates, and 2 µL DMSO or 20 µM compound, or 20 µM KKL-35 was added. Plates were sealed with adhesive film, vortexed gently to mix, and incubated at room temperature for 2 h. 50 µL Bright-Glo reagent (Promega, Madison, WI) was added to each well, and the plates were sealed with adhesive film, vortexed vigorously, and incubated for an additional 10 min at room temperature. Luminescence was measured at 560 nm using a SpectraMax i3 microplate reader and readings for each plate were normalized to the average of three KKL-35-treated wells (positive control) and three DMSO-treated wells (negative control) within the plate to correct for plate-to-plate and day-to-day variations. Results from at least two biological repeats were averaged, and GraphPad Prism was used to plot the data. We screened a library of 1,601 anti-tubercular small molecules for their ability to inhibit trans-translation using a luciferase reporter in Escherichia coli. In this luc-trpAt reporter, the firefly luciferase gene has a trpA transcriptional terminator before the stop codon, such that luciferase is translated from a non-stop mRNA ([16]). When trans-translation is active, the luciferase will be tagged and degraded, but when trans-translation is inhibited, active luciferase will accumulate, resulting in a luminescent signal when luciferin is added. Luciferase activity was measured after growth in the presence of compounds from the library at 20 µM, using the known trans-translation inhibitor KKL-35 as a positive control (Fig. 1A) ([16], [17]). Compounds with activity one standard deviation above the median were scored as positive (Fig. S1 and Table S1).
In the case of Clc1cccc(Nc2nc(NCc3ccco3)c3ccccc3n2)c1 [KKL-0728], the “% activation” value was 0%.
With O=C(Nc1ccc(Cl)cc1C(F)(F)F)c1ccc([N+](=O)[O-])o1 [KKL-0712] the “% activation” value was 0%.
In the case of CC(C)OC(=O)CSc1nnc(-c2ccc(Cl)cc2Cl)o1 [KKL-1620], the “% activation” value was 0%.
With CN(C)CCCn1c(SCC(=O)Nc2nc(-c3cccc(Br)c3)cs2)nc2ccccc2c1=O [KKL-0806] the “% activation” value was 0%.
CCOC(=O)c1ccc(NC(=O)c2ccc(C)s2)cc1 [KKL-0584] was tested, and the “% activation” value was 0%.
In the case of CCC(C)c1ccc(OCCCCn2ccnc2)cc1 (centres unmarked) [KKL-1371], the “% activation” value was 14%.
Cn1nc(-c2ccc3ccccc3c2)cc1[C@H]1CN2CC[C@H]1C[C@@H]2COC(=O)Nc1cccc(C(F)(F)F)c1 [KKL-0323] was tested, and the “% activation” value was 0%.
With Cc1ccc2cc3c(nc2c1C)OC(=O)N(C1CCCC1)C3 [KKL-0690] the “% activation” value was 1%.
With Cc1ccc(-c2nn(-c3cccc(F)c3)cc2CNCc2cnn(Cc3ccccc3)c2)o1 [KKL-0458] the “% activation” value was 0%.
In the case of CC(C)(C)n1cnc2cc(NC(=O)c3ccc(Cl)cc3)ccc21 [KKL-1231], the “% activation” value was 0%.
For Brc1ccc(-c2nn(-c3ccccc3)cc2CNCc2ccccc2)cc1 [KKL-0405], the “% activation” value was 0%.
With Cc1ccc2nc(Cl)c(/C=C/C(=O)c3ccco3)cc2c1 [KKL-0389] the “% activation” value was 0%.
For CCOC(=O)COc1ccc(S(=O)(=O)N2CCc3ccccc3C2)cc1 [KKL-1396], the “% activation” value was 2%.
With Cc1ccc(-n2cc(CN(C)Cc3ccccn3)c(-c3ccc(F)cc3)n2)cc1 [KKL-0489] the “% activation” value was 1%.
For O=[N+]([O-])c1ccc(Sc2nc3ccccc3o2)c([N+](=O)[O-])c1 [KKL-1104], the “% activation” value was 0%.
In the case of CC(C)(C)c1cc(NCCCn2ccnc2)n2ncc(-c3ccccc3)c2n1 [KKL-0872], the “% activation” value was 0%.
For Cc1nc2ccc(C(=O)OCc3cccc(F)c3)cc2nc1C [KKL-1308], the “% activation” value was 0%.
For Cc1ccccc1C1c2[nH]c3ccccc3c2CCN1C(=O)c1nn(C)c(=O)c2ccccc12 (centres unmarked) [KKL-0620], the “% activation” value was 1%.
CC(=O)Oc1cccc2ccc(/C=C/c3c(F)cccc3Cl)nc12 [KKL-1499] was tested, and the “% activation” value was 0%.
CCc1c(C)c2ccc(OCC(=O)OC)c(C)c2oc1=O [KKL-1278] was tested, and the “% activation” value was 0%.
In the case of CCOc1cc(C(=O)ON=C(N)Cc2ccc(Cl)cc2Cl)cc(OCC)c1OCC [KKL-1414], the “% activation” value was 0%.
With Cc1ccnc(NC(=O)COc2ccc([N+](=O)[O-])cc2)c1 [KKL-0299] the “% activation” value was 0%.
CCc1ccc(C2CC(C(F)(F)F)n3ncc(C(=O)NCc4cccs4)c3N2)cc1 (centres unmarked) [KKL-1779] was tested, and the “% activation” value was 0%.
In the case of CCOC(=O)c1cc(CC)sc1NC(=O)c1cc2ccccc2oc1=O [KKL-1372], the “% activation” value was 0%.
For CCc1ccc(/C=C/C(=O)C2C(=O)c3ccccc3C2=O)cc1 [KKL-1072], the “% activation” value was 0%.
Cc1ccc2nc(C(F)(F)F)c(C(=O)NCc3cc(Cl)cc(Cl)c3)n2c1 [KKL-1785] was tested, and the “% activation” value was 16%.
In the case of CCC1CCCCN1C(=O)COC(=O)c1cc2ccccc2cc1O (centres unmarked) [KKL-0823], the “% activation” value was 0%.
In the case of COC(=O)[C@@H](NC(=O)c1cc(COc2ccc(F)cc2Cl)on1)c1ccccc1 [KKL-0495], the “% activation” value was 2%.
With O=C(CCc1ccccc1)NC(=S)Nc1ccc(N2CCCCC2)cc1 [KKL-0596] the “% activation” value was 1%.
COc1ccc(NC(=O)c2ccc(C#CC(C)(C)O)s2)cc1 [KKL-0562] was tested, and the “% activation” value was 1%.
c1coc(CNc2nc(N3CCCCC3)nc3ccccc23)c1 [KKL-1096] was tested, and the “% activation” value was 0%.
In the case of O=C(Nc1ccc(F)c(Cl)c1)c1ccc([N+](=O)[O-])o1 [KKL-1402], the “% activation” value was 0%.
In the case of Clc1ccc2nc(-c3ccccn3)c(Nc3ccc4c(c3)OCO4)n2c1 [KKL-1117], the “% activation” value was 2%.
O=c1c2cc(Cl)ccc2oc2nc3n(c(=O)c12)CCCS3 [KKL-1007] was tested, and the “% activation” value was 8%.
With Clc1ccc(OCCCCCn2ccnc2)c(Cl)c1 [KKL-0421] the “% activation” value was 0%.
With c1ccc(OCc2nn3c(-c4[nH]nc5c4CCC5)nnc3s2)cc1 [KKL-1028] the “% activation” value was 7%.
Cc1ccc(NCc2nnc(SCC(=O)OC3CCCCC3)o2)c(C)c1 [KKL-1632] was tested, and the “% activation” value was 0%.
With Cc1ccc(-n2cc(CN3CCN(c4ccccn4)CC3)c(-c3ccc(F)cc3)n2)cc1 [KKL-0320] the “% activation” value was 0%.
With CSCCC(=O)N1CCCC(CNC(=O)c2ccc(-c3ccccc3)cc2)C1 (centres unmarked) [KKL-0641] the “% activation” value was 2%.
With CCc1ccc(OCC(=O)NNC(=O)c2cnccn2)c(Br)c1 [KKL-1280] the “% activation” value was 3%.
Cc1nc2ccccn2c1C(=O)NCc1ccccc1 [KKL-1735] was tested, and the “% activation” value was 0%.
With Cc1cc(N2CCCCC2)nc2ccc(NC(=O)c3ccc(Br)o3)cc12 [KKL-1124] the “% activation” value was 0%.
Cc1ccn2c(Nc3ccccc3C)c(-c3ccccn3)nc2c1 [KKL-1590] was tested, and the “% activation” value was 0%.
CN(c1ccccc1)c1nc(N2CCCC2)nc(-n2ccnc2)n1 [KKL-1519] was tested, and the “% activation” value was 0%.
With O=C(C1CCN(c2nnc(-n3cccc3)s2)CC1)N1CCN(c2cccc(C(F)(F)F)c2)CC1 [KKL-1146] the “% activation” value was 5%.
In the case of O=C(Nc1ccc(Oc2cccnc2)cc1)C1Oc2ccccc2O1 [KKL-0696], the “% activation” value was 0%.
For O=C(OCC#CCSc1nnc(-c2ccc([N+](=O)[O-])cc2)o1)c1cccs1 [KKL-0970], the “% activation” value was 6%.
NC(=O)c1c(NC(=O)c2c(F)c(F)c(F)c(F)c2F)sc2c1CCC2 [KKL-1570] was tested, and the “% activation” value was 0%.
For COC(=O)C(CCSC)NC(=O)c1cc(COc2ccc3sc(C)nc3c2)on1 (centres unmarked) [KKL-1122], the “% activation” value was 0%.
Cn1c(-c2ccccc2)c(C(=O)CCl)c2ccccc21 [KKL-0824] was tested, and the “% activation” value was 0%.
In the case of Cc1cc([N+](=O)[O-])ccc1NC(=O)Nc1cccc(C(F)(F)F)c1 [KKL-1531], the “% activation” value was 0%.
O=C(Nc1ccccc1)Nc1ccc(S(=O)(=O)Nc2cccc(C(F)(F)F)c2)cc1 [KKL-0719] was tested, and the “% activation” value was 0%.
CC1=NN(C(=O)c2ccccc2)C(O)(c2ccncc2)C1 (centres unmarked) [KKL-1502] was tested, and the “% activation” value was 0%.
CC1CCc2c(sc3nc(C(C)(C)C)nc(N4CCNCC4)c23)C1 (centres unmarked) [KKL-0525] was tested, and the “% activation” value was 0%.
For c1ccc(CCN(Cc2ccccc2)C2CCN(Cc3c[nH]c4ccccc34)CC2)cc1 [KKL-0907], the “% activation” value was 0%.
In the case of O=C(Nc1nc2c(s1)CCCC2)c1ccc(Br)s1 [KKL-0575], the “% activation” value was 0%.
CCCC(=O)N1CCN(c2ccc(NC(=O)c3ccc([N+](=O)[O-])o3)cc2)CC1 [KKL-1656] was tested, and the “% activation” value was 0%.
For Oc1cccc2ccc(/C=C/c3cccc(F)c3)nc12 [KKL-1464], the “% activation” value was 18%.
With CC(C)=CCN1CCN(CCC2=C(C)CCCC2(C)C)CC1CCO (centres unmarked) [KKL-1079] the “% activation” value was 4%.
COc1ccccc1C(=O)NNC(=S)NC(=O)c1cccs1 [KKL-0062] was tested, and the “% activation” value was 45%.
In the case of COC(=O)c1cccc(NC(=S)NC[C@H]2C[C@@H]3CCN2C[C@@H]3c2cc(-c3ccc4ccccc4c3)nn2C)c1 [KKL-1596], the “% activation” value was 71%.
With O=[N+]([O-])c1cc(S(=O)(=O)C(F)(F)F)ccc1Sc1nc2ccccc2s1 [KKL-0960] the “% activation” value was 0%.
With O=C(CSc1nnc(CNc2cccc(Cl)c2)o1)OC1CCCCC1 [KKL-1642] the “% activation” value was 3%.
In the case of N=c1c2c(-c3ccccc3)c(-c3ccccc3)n(Cc3ccco3)c2ncn1Cc1ccco1 [KKL-1381], the “% activation” value was 0%.
For CN(C)c1ccc(Nc2nc(-c3ccc(O)cc3O)cs2)cc1 [KKL-1352], the “% activation” value was 0%.
For O=C(Oc1c(Cl)cc(Cl)c2cccnc12)c1ccc([N+](=O)[O-])cc1 [KKL-0754], the “% activation” value was 96%.
For Cc1cc(NC(=O)C2CCCCC2)n(-c2nc3ccccc3[nH]2)n1 [KKL-0795], the “% activation” value was 9%.
With O=c1c2ccccc2[nH]c(=S)n1CCCN1CCN(c2cccc(Cl)c2)CC1 [KKL-1390] the “% activation” value was 0%.
With OC(CN1CCNCC1)Cn1c2ccc(Cl)cc2c2cc(Cl)ccc21 (centres unmarked) [KKL-0542] the “% activation” value was 0%.
With COc1cc(CNCc2ccccn2)ccc1OCc1ccc(Cl)c(Cl)c1 [KKL-0354] the “% activation” value was 0%.
For CSc1ccc(-c2nnc(NC(=O)c3ccc(Cl)s3)o2)cc1 [KKL-1706], the “% activation” value was 50%.
CCCOc1ccc(Nc2cc(C)nc3ccc(Cl)cc23)cc1 [KKL-0742] was tested, and the “% activation” value was 0%.
Cc1cc(C)cc(OCCCON2C(=N)N=C(N)NC2(C)C)c1 [KKL-1675] was tested, and the “% activation” value was 13%.
With COc1ccc(NC(=O)CC23CC4CC(CC(C4)C2)C3)cc1Cl [KKL-0753] the “% activation” value was 3%.
CN(CCC12CC3CC(CC(C3)C1)C2)Cc1nc(COc2ccccc2)no1 [KKL-1178] was tested, and the “% activation” value was 0%.
In the case of O=C(NC[C@H]1C[C@@H]2CCN1C[C@@H]2CN1CCC(Cc2ccccc2)CC1)c1ccc(C(F)(F)F)cc1 [KKL-0307], the “% activation” value was 0%.
With O=C(CCNc1ccc(Cl)c(C(F)(F)F)c1)c1cccs1 [KKL-0437] the “% activation” value was 0%.
In the case of O=C(NCc1ccc(Oc2ccccc2)cc1)c1c(C(F)(F)F)nc2ccccn12 [KKL-1852], the “% activation” value was 3%.
With O=C(O)c1cn(-c2ccc(N3CCCC3)c(F)c2)c2c(F)c(F)c(F)cc2c1=O [KKL-1114] the “% activation” value was 3%.
COc1cc2c(cc1NC(=O)Nc1ccc(Cl)cc1)oc1ccccc12 [KKL-0402] was tested, and the “% activation” value was 5%.
O=C(Nc1ccc(F)cc1)NC1CCCCCCC1 [KKL-1335] was tested, and the “% activation” value was 0%.
In the case of COc1ccc(OCC(=O)Nc2cccc(Cl)c2)cc1 [KKL-0787], the “% activation” value was 0%.
In the case of COc1ccccc1C1(O)CCN(CC(O)c2ccc3ccccc3c2)CC1 (centres unmarked) [KKL-0688], the “% activation” value was 3%.
For c1ccc(Nc2nc(-c3ccccn3)cs2)cc1 [KKL-1622], the “% activation” value was 0%.
In the case of C=CCn1c(-c2cccs2)nc2ccccc21 [KKL-1438], the “% activation” value was 0%.
Cc1nc2ccc(C(=O)OCc3nnc(-c4ccccc4)o3)cc2nc1C [KKL-1299] was tested, and the “% activation” value was 0%.
